Data source: PubChem BioAssay AID504793 (Drosophila RNAi Screening Center, 2011)

Screen: 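Knock-downs allowing continued mitosis even though DNA is damaged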 (primary screen)
System: Drosophila S2R+ cells
Knock-down reagent: long dsRNA against Drosophila genes, about 0.25 µg dsRNA per well
Time to read-out: 4 days of dsRNA, then 4 hours of drug before read-out
Treatment: doxorubicin 0.5 µM for 4 hours to cause double-strand breaks, in cells also given a low, harmless dose of dsRNA against nbs to sensitise the assay
Measurement: 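Mitotic index as the number of phospho-histone H3-positive cells in each well following doxorubicin, given as raw counts without normalisation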
Direction: mitotic cells: higher = more cells in mitosis, weaker G2 arrest
Call rule: 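a call needs confirmation in secondary tests, with other dsRNAs and a check of mitotic timing without damage, not just a high primary count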
Calls: active = confirmed in follow-up tests; inactive = not confirmed
The deposit covers about 23,000 reagents; below is an unselected part of those that have a named target and a result. Of all reagents, 62 (0.27%) are marked active. 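Calls come from follow-up tests whose scores are not deposited, so confirmed genes may have low counts here; counts are not normalised per plate.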 Raw values are not corrected between plates. A plus sign joins genes that one reagent is predicted to hit.

The opening 4 entries, to show the layout:
| gene knocked down | DRSC id | mitotic cells, replicate 1 | activity call |
| --- | --- | --- | --- |
| GluRIID | DRSC16723 | 6 | inactive |
| GluRIID | DRSC24866 | 7 | inactive |
| Spn42Dc | DRSC05010 | 7 | inactive |
| mRpS35 | DRSC08551 | 1 | inactive |

The list itself, from the first entry:
| gene knocked down | DRSC id | mitotic cells, replicate 1 | activity call |
| --- | --- | --- | --- |
| GluRIID | DRSC16723 | 6 | inactive |
| GluRIID | DRSC24866 | 7 | inactive |
| Spn42Dc | DRSC05010 | 7 | inactive |
| mRpS35 | DRSC08551 | 1 | inactive |
| RtGEF | DRSC03604 | 5 | inactive |
| RtGEF | DRSC22207 | 17 | inactive |
| dap | DRSC07601 | 6 | inactive |
| Oatp30B | DRSC02727 | 4 | inactive |
| Fip1 | DRSC12147 | 4 | inactive |
| CG2065 | DRSC06813 | 3 | inactive |
| CG2065 | DRSC21328 | 75 | inactive |
| CG2065 | DRSC29164 | 8 | inactive |
| Pp1-13C | DRSC20269 | 25 | inactive |
| Pp1-13C | DRSC23305 | 4 | inactive |
| Pp1-13C | DRSC27492 | 11 | inactive |
| eIF2Bbeta | DRSC18465 | 10 | inactive |
| eIF2Bbeta | DRSC28495 | 3 | inactive |
| ntc | DRSC08166 | 8 | inactive |
| IleRS | DRSC11667 | 6 | inactive |
| nonA | DRSC20357 | 9 | inactive |
| nonA | DRSC27455 | 6 | inactive |
| CCHa1 | DRSC24978 | 2 | inactive |
| CG3734 | DRSC15509 | 10 | inactive |
| CG3734 | DRSC25892 | 5 | inactive |
| CG30148 | DRSC06391 | 4 | inactive |
| Hmr | DRSC17740 | 4 | inactive |
| Ucp4B | DRSC02665 | 8 | inactive |
| CG8173 | DRSC20088 | 8 | inactive |
| CG10254 | DRSC14153 | 2 | inactive |
| CG10254 | DRSC29495 | 7 | inactive |
| CG7849 | DRSC04895 | 10 | inactive |
| CG7849 | DRSC26457 | 7 | inactive |
| l(3)76BDm | DRSC11047 | 7 | inactive |
| Ythdc1 | DRSC08141 | 6 | inactive |
| CG30496 | DRSC06805 | 5 | inactive |
| LManV | DRSC03223 | 1 | inactive |
| LManV | DRSC24176 | 9 | inactive |
| CG31534 (retired record) | DRSC12141 | 1 | inactive |
| CG31534 (retired record) | DRSC12289 | 5 | inactive |
| CG31534 (retired record) | DRSC27803 | 3 | inactive |
| CG7453 | DRSC20046 | 6 | inactive |
| CG7453 | DRSC24580 | 10 | inactive |
| CG6900 (retired record) | DRSC20018 | 5 | inactive |
| peng | DRSC20583 | 7 | inactive |
| peng | DRSC29638 | 6 | inactive |
| Gr36c | DRSC02437 | 6 | inactive |
| Gr36c | DRSC26305 | 12 | inactive |
| CG30325 | DRSC05685 | 7 | inactive |
| CG42353 + CG42354 | DRSC23154 | 13 | inactive |
| CG42353 + CG42354 | DRSC29165 | – | inactive |
| CG4950 | DRSC10463 | 1 | inactive |
| CG10761 | DRSC17753 | 11 | inactive |
| CG10761 | DRSC27665 | 6 | inactive |
| crp | DRSC03515 | 2 | inactive |
| Fdh | DRSC16670 | 3 | inactive |
| Obp57c + Obp57b | DRSC21914 | 10 | inactive |
| Obp57c + Obp57b | DRSC24245 | 8 | inactive |
| Prosalpha6 | DRSC03401 | 62 | inactive |
| CG30116 | DRSC05935 | 4 | inactive |
| CG30116 | DRSC06685 | 8 | inactive |
| mRpS18B | DRSC02107 | 6 | inactive |
| CG15308 | DRSC17995 | 12 | inactive |
| CG11279 | DRSC09837 | 1 | inactive |
| Gr21a | DRSC00366 | 10 | inactive |
| Gr21a | DRSC28583 | 5 | inactive |
| RpS17 | DRSC11271 | – | inactive |
| RpS17 | DRSC29519 | 2 | inactive |
| CG10804 | DRSC17764 | 5 | inactive |
| eIF4EHP | DRSC13653 | 9 | inactive |
| eIF4EHP | DRSC14265 | 12 | inactive |
| CG31915 | DRSC03000 | 2 | inactive |
| Tmx3 | DRSC10471 | 6 | inactive |
| Clic | DRSC19364 | 7 | inactive |
| CG14244 | DRSC14739 | 8 | inactive |
| Hers + amn | DRSC20306 | 5 | inactive |
